Reference: PMC9932110
Results are given in words; binding and its absence hold for the method and conditions named. Some results given as binding are weak or reduced against the parent protein; the word gives no strength.

Biological target: T1, Maea (mouse) (UniProt Q4VC33)
T1 sequence: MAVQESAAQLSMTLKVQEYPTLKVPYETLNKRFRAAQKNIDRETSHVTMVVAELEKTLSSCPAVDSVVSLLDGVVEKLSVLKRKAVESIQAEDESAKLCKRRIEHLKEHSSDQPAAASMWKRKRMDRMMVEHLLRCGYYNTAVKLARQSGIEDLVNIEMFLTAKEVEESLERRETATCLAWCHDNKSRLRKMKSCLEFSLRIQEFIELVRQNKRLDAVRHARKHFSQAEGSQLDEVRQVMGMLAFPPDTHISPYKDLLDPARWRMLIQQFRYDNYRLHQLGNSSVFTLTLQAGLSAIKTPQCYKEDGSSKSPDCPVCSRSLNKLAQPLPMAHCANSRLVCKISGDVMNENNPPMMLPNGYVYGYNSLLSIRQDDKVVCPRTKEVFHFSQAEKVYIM
Experiment: SEC; Tcat complex co-expressed in Hi5 insect cells and co-purified by nickel affinity and SEC; both purified

binding: binds
B1: Rmnd5a (protein, UniProt Q80YQ8 1-391)
chain: MDQCVTVERELEKVLHKFSGYGQLCERGLEELIDYTGGLKHEILQSHGQDAELSGTLSLVLTQCCKRIKDTVQKLASDHKDIHSSVSRVGKAIDKNFDSDISSVGIDGCWQADSQRLLNEVMVEHFFRQGMLDVAEELCQESGLSVDPSQKEPFVELNRILEALKVRVLRPALEWAVSNREMLIAQNSSLEFKLHRLYFISLLMGGTTNQREALQYAKNFQPFALNHQKDIQVLMGSLVYLRQGIENSPYVHLLDANQWADICDIFTRDACALLGLSVESPLSVSFSAGCVALPALINIKAVIEQRQCTGVWNQKDELPIEVDLGKKCWYHSIFACPILRQQTTDNNPPMKLVCGHIISRDALNKMFNGSKLKCPYCPMEQSPGDAKQIFF
